Two substances from publication PMC10313831 can be followed below.

The chains behind the UniProt entries cited, without tags or fusion partners.
UniProt P26754: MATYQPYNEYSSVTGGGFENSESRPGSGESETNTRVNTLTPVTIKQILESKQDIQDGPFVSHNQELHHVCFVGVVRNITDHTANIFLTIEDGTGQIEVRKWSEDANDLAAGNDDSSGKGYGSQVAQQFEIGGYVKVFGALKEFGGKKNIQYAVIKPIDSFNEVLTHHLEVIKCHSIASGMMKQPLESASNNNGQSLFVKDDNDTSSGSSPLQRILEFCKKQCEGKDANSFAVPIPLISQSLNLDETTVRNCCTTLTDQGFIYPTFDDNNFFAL
UniProt P22336: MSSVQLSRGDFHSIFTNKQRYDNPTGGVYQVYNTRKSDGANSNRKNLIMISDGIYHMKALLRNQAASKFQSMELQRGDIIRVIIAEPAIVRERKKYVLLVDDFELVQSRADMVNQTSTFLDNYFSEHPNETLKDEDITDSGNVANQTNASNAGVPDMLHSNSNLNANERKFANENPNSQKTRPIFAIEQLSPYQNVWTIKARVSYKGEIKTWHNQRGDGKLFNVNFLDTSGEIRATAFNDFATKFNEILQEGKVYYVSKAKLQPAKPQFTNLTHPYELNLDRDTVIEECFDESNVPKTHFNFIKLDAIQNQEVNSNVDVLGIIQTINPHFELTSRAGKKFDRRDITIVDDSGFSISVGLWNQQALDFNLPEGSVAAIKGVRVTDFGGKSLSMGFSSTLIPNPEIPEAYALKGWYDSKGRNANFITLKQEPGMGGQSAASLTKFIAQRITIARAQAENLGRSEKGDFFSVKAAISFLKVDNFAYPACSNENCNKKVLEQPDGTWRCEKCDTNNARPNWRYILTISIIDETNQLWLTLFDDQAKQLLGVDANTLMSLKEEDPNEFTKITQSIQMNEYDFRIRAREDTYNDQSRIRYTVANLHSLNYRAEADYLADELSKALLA
UniProt P26755: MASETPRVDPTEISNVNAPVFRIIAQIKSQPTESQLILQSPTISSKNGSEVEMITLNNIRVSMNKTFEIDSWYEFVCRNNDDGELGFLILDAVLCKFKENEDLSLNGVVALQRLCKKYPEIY

Results are given in words; binding and its absence hold for the method and conditions named. Some entries that bind do so weakly or less than the wild type.

For the experiment, the target named is Rfa2-MeGFP-6xHis (subunit of S. cerevisiae RPA) (S. cerevisiae) (UniProt P26754). Nature of the experiment: SEC; subunits co-expressed in E. coli and co-purified over Affi-Gel-Blue, Ni-NTA and Superdex 200 10/300 GL in T-500 buffer (25 mM Tris-HCl pH 7.5, 500 mM NaCl, 1 mM EDTA, 5% glycerol); fractions tested by SDS-PAGE and Coomassie.

Take “Rfa1 (subunit of S. cerevisiae RPA) (from UniProt P22336 1-621)”: the binding entry is listed as “binds”.

“Rfa3 (subunit of S. cerevisiae RPA) (from UniProt P26755 1-122)”: the binding result is on record as “binds”.
